Results are given in words; binding and its absence hold for the method and conditions named. Some entries that bind do so weakly or less than the wild type. For some of these results: Tags and fused reporters may be left off the sequences shown.
Experiments:
[1] = target: T1, DinG (B. subtilis), P54394; test: far-Western, overlay or dot blot; immuno-dot blot: proteins (75-300 ng) spotted on nitrocellulose, blocked with 5% skimmed milk in PBS, incubated 6 h at 4 °C with 200 ng/ml RecA in PBS, 0.5% skimmed milk powder, 0.1% Triton X-100; washed; retained RecA detected with polyclonal anti-RecA antibody; both purified; conditions: remark: other sources report otherwise
T1 chain: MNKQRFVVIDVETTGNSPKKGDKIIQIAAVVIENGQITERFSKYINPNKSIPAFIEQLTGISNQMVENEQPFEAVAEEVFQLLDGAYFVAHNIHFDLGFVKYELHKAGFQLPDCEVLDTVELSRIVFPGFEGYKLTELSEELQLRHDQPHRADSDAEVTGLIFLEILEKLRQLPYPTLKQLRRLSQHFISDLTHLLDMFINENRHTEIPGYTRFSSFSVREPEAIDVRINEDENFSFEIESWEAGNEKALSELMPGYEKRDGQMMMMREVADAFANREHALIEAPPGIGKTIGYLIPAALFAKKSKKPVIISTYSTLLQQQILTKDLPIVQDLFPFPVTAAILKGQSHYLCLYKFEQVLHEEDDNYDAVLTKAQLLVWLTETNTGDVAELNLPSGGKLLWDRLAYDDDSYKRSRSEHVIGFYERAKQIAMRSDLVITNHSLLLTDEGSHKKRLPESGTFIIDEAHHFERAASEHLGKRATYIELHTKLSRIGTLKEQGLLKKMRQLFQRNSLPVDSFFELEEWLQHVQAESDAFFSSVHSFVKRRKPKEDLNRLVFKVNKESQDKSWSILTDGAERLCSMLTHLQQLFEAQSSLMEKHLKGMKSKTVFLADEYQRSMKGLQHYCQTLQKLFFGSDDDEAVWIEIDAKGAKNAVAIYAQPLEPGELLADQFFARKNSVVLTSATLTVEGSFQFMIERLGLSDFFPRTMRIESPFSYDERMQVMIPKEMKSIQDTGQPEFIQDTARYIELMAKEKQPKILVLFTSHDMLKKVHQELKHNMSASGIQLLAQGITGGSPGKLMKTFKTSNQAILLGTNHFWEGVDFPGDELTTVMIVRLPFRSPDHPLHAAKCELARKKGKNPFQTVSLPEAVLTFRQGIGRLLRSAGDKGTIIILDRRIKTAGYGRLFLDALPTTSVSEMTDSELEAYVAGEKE

The chains behind the UniProt entries cited, without tags or fusion partners.
UniProt O34996: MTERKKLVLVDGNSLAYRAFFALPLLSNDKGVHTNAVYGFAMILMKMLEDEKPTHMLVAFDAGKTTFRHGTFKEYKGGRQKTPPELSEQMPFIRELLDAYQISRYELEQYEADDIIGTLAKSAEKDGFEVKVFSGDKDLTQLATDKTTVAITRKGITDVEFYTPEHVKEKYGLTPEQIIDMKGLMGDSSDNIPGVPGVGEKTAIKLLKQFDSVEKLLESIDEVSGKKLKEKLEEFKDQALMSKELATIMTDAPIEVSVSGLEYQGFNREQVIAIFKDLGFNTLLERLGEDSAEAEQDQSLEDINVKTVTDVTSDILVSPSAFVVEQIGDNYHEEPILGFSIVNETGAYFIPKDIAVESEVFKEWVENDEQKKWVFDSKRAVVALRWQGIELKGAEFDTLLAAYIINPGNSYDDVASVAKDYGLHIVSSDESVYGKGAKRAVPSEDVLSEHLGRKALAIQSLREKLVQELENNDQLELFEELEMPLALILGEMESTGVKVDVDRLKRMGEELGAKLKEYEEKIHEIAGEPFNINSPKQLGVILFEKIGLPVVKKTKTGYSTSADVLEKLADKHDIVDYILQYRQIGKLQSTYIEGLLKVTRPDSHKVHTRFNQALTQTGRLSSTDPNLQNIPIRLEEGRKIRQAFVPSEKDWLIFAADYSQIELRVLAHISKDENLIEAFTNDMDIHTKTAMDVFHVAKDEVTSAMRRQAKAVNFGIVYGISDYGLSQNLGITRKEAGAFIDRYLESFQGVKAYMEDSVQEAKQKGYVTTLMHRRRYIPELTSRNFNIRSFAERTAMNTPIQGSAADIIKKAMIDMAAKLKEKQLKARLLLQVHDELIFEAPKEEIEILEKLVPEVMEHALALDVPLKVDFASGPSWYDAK

[2] = target: T2, PcrA (B. subtilis), O34580; test: as above; conditions: remark: other sources report otherwise
T2 chain: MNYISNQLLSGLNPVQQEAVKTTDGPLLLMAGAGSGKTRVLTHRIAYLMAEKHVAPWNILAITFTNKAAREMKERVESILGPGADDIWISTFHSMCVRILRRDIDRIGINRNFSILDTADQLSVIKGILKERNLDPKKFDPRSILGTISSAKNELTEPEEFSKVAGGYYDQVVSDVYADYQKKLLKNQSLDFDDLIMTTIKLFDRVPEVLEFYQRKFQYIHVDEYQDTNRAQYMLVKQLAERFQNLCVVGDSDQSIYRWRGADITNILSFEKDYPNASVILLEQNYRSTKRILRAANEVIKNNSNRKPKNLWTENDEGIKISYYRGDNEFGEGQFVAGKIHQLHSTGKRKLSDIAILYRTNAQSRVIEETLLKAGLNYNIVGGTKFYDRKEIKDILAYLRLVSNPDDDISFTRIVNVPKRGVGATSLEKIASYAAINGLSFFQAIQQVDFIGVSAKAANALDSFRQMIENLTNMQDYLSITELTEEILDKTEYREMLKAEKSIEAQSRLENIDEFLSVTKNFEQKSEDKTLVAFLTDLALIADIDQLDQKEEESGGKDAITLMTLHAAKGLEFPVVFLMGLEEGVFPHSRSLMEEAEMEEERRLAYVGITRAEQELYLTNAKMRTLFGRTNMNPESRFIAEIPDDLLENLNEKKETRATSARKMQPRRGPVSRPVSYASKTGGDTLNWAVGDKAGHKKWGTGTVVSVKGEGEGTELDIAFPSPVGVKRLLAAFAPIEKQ

[3] = target: PolA (T18 or T25 fusion) (B. subtilis) (UniProt O34996); test: two-hybrid; bacterial adenylate cyclase two-hybrid (T18/T25 fusions) in E. coli BTH101; co-transformants spotted on LB with 0.5 mM IPTG and X-gal, 3-4 days at 25 °C
[4] = target: T3, DinG (T18 or T25 fusion) (B. subtilis) (UniProt P54394); test: as above
T3 sequence: T1 chain

B1: RecA, P16971 1-348 (protein)
chain: MSDRQAALDMALKQIEKQFGKGSIMKLGEKTDTRISTVPSGSLALDTALGIGGYPRGRIIEVYGPESSGKTTVALHAIAEVQQQGGQAAFIDAEHALDPVYAQKLGVNIEELLLSQPDTGEQALEIAEALVRSGAVDIVVVDSVAALVPKAEIEGDMGDSHVGLQARLMSQALRKLSGAINKSKTIAIFINQIREKVGVMFGNPETTPGGRALKFYSSVRLEVRRAEQLKQGNDVMGNKTKIKVVKNKVAPPFRTAEVDIMYGEGISKEGEIIDLGTELDIVQKSGSWYSYEEERLGQGRENAKQFLKENKDIMLMIQEQIREHYGLDNNGVVQQQAEETQEELEFEE
binding [1]: binds | binding [2]: binds

B2: DnaN (T18 or T25 fusion) (protein, UniProt P05649 1-378)
chain: MKFTIQKDRLVESVQDVLKAVSSRTTIPILTGIKIVASDDGVSFTGSDSDISIESFIPKEEGDKEIVTIEQPGSIVLQARFFSEIVKKLPMATVEIEVQNQYLTIIRSGKAEFNLNGLDADEYPHLPQIEEHHAIQIPTDLLKNLIRQTVFAVSTSETRPILTGVNWKVEQSELLCTATDSHRLALRKAKLDIPEDRSYNVVIPGKSLTELSKILDDNQELVDIVITETQVLFKAKNVLFFSRLLDGNYPDTTSLIPQDSKTEIIVNTKEFLQAIDRASLLAREGRNNVVKLSAKPAESIEISSNSPEIGKVVEAIVADQIEGEELNISFSPKYMLDALKVLEGAEIRVSFTGAMRPFLIRTPNDETIVQLILPVRTY
binding [3]: binds

B3: PolY1 (T18 or T25 fusion) (protein, UniProt P54545 1-414)
chain: MPGKSRIIFHIDMNSFYASVEMAYDPALRGKPVAVAGNVKERKGIVVTCSYEARARGVKTTMPVWQAKRHCPELIVLPPNFDRYRNSSRAMFTILREYTDLVEPVSIDEGYMDMTDTPYSSRALETAKEIQSRLQKELLLPSSIGIAPNKFLAKMASDMKKPLGITILRKRQVPDILWPLPVGEMHGVGKKTAEKLKGLGIHTIGELAAADEHSLKRLLGINGPRLKNKANGIHHAPVDPERIYEFKSVGNSSTLSHDSSDEEELLGVFRKLAASVSDRLQRKEVMASKLFIMIRYADWRTITRSTTLRNPIDQKNDILKEAEHLFFKHWNKNPVRLLGITGTDLVEKEQAYKQLDLFSFNEDAKDEPIQQMMEKLNKKYGTKLIRKGATLKKEESKTKGTSFNKDFFQDEKKS
binding [4]: no binding
